Test results from patent US20220362177A1, “CERAMIDE RATIOS AS PREDICTIVE AND THERAPEUTIC BIOMARKERS FOR LEUKEMIAS” (University of Virginia Patent Foundation, priority 2019, published 2022).
For at least one compound, name, drawing or mass did not settle the structure.

Key:
ceramide levels = assay: Lipidomics (LC/MS) of ceramide levels in treated cells; type: cell-based; details: 24 hrs
Excerpt: Lipidomics: Lipids were extracted from cell lysates and analyzed on an Acquity I-Class/Xevo TQ-S Micro IVD System (Waters Corporation, Milford, Mass., United States of America) as described previously (Pearson et al. (2020) Ceramide Analogue SACLAC Modulates Sphingolipid Levels and MCL-1 Splicing to Induce Apoptosis in Acute Myeloid Leukemia. Mol Cancer Res 18(3):352-363). Mass spectrometry peaks were compared to internal standards, and all data are represented as picomoles of lipid per milligram of protein.
To determine potential metabolic mechanism underlying the efficacy of combinatorial CNL/AraC/Venetoclax (CAV) treatment, lipids were harvested to measure the effect of Venetoclax and AraC upon CNL metabolism by LC/MS. Cells were treated individually or in combination with CNL, Ara-C, and/or Venetoclax for 24 hrs. […] This lead to an increase in the C16/C24 ratio, which might support a pro-mitogenic response (FIG. 6H).

Survivin = assay: Western blot of treated MOLM-14 cells; type: cell-based; details: MOLM-14, 24 hours, independently
Description: (§1) FIGS. 7A-7I. CAV treatment alters expression of genes involved in cell survival relevant to AraC and Venetoclax resistance mechanism. MOLM-14 cells were treated with the listed conditions for 24 hours and protein harvested. Western blots were performed and quantitated via densitometry. Representative blots are shown in FIG. 7A and quantification in FIGS. 7B-7I. *: significant to Vehicle.
(§2) Western blotting: Whole cell lysates were prepared by dissolving cells in FOCUS™ Extraction Buffer III (G-Biosciences, St. Louis, Mo., United States of America; Catalog No. 786-222) containing protease inhibitors (Thermo Fisher Scientific Catalog No. A32955) for 10-15 minutes on ice with occasional shaking. After centrifugation for 15 minutes at 13-14000×g at 10° C. supernatants were mixed with one-third of a volume of NUPAGE™ LDS 4× Sample Buffer (Thermo Fisher Scientific) containing 5% 2-mercaptoethanol. Protein samples were prepared by heating at 37° C. for 10 min after the addition of denaturing sample buffer. Proteins were separated using SDS-PAGE on a 4-12% gel (Thermo Fisher Scientific) and transferred to Immobilon membrane (Bio-Rad). […]

XIAP = assay: Western blot of treated MOLM-14 cells; type: cell-based; details: MOLM-14, 24 hours
Description: as §1, §2

pChk1 = assay: Western blot of treated MOLM-14 cells; type: cell-based; details: MOLM-14, 24 hours, with Ara-C
pChk2 = assay: Western blot of treated MOLM-14 cells; type: cell-based; details: MOLM-14, 24 hours, with Ara-C
C1498 AML cells = assay: Syngeneic C1498-luc AML model in C57BL/6J mice; type: in vivo, mouse
Description: FIG. 8C: Survival of C1498-bearing C57BL/6J mice were treated with either Control (Lip-Ghost), CNL (31.2 mg/kg), Cytarabine (75 mg/kg) or CNL+Cytarabine.
We initially utilized the immune-compromised NRG mice engrafted with MOLM-13 cells expressing luciferase. Mice were engrafted, treated with the various drug combinations, and disease burden measured by live animal luminescence and Kaplan-Meier curve. […] C1498 cells are a de novo AML cell line from a C57-blkJ mouse. […] Given this, no Venetoclax groups were included. C57-blkJ mice were injected with C1498 AML cells transduced to express luciferase.

In the case of `CC1(C)CCC(CN2CCN(c3ccc(C(=O)NS(=O)(=O)c4ccc(NCC5CCOCC5)c([N+](=O)[O-])c4)c(Oc4cnc5[nH]ccc5c4)c3)CC2)=C(c2ccc(Cl)cc2)C1` [Venetoclax, venetoclax], the ceramide levels (ceramide levels; single agent) was “significantly elevated”, the ceramide levels (ceramide levels; with co-treatment of CNL) was “raise ceramide levels” and the Survivin expression levels (Survivin) was “increased expression levels”. For the same compound, the XIAP expression (XIAP) was “small but not statistically significant increase”, the “Ara-C induced protein levels of pChk1” value (pChk1) was “reduced” and the “Ara-C induced protein levels of pChk2” value (pChk2) was “reduced”. For the same compound, the “sensitivity of C1498 line to treatment” value (C1498 AML cells) was “insensitive”.
